From article PMC2765060
No constants are given. Whether binding was seen depends on the method and setting. Binding seen in cells or lysates may run through a third protein. Some entries that bind do so weakly or less than the wild type. Sequences can lack the tags named with a protein.

Target: T1, FLAG-tagged wild type Dmp53 (UAS-Dmp53-FLAG-myc) (D. melanogaster) (UniProt Q9N6D8)
T1 sequence: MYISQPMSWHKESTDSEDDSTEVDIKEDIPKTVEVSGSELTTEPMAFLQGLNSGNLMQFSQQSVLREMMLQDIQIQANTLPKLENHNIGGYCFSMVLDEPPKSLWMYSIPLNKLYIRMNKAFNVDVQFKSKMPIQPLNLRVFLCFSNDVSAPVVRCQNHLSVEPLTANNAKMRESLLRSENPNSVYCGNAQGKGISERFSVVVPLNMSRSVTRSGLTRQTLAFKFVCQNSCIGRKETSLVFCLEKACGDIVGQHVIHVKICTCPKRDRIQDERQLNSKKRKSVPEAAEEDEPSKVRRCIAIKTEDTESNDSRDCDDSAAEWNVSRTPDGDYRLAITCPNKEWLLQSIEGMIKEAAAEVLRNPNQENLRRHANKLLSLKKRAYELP
Experiment: co-IP; head extracts (about 75 heads, 500 ug protein) of females expressing Dmp53-FLAG-myc for ten days; NP-40 lysis buffer (1% NP-40, 20 mM Tris pH 8.0, 137 mM NaCl, 2 mM EDTA, 10% glycerol); anti-FLAG M2 overnight at 4°C, Protein G-Sepharose; Western blot with anti-dSir2

binding: binds
B1: endogenous dSir2 (protein, UniProt Q9VK34 1-823)
chain: MMENYEEIRLGHIRSKDLGNQVPDTTQFYPPTKFDFGAEILASTSTEAEAEAEATATTTEPATSELAGKANGEIKTKTLAAREEQEIGANLEHKTKNPTKSMGEDEDDEEEEEEDDEEEEEDDEEGITGTSNEDEDSSSNCSSSVEPDWKLRWLQREFYTGRVPRQVIASIMPHFATGLAGDTDDSVLWDYLAHLLNEPKRRNKLASVNTFDDVISLVKKSQKIIVLTGAGVSVSCGIPDFRSTNGIYARLAHDFPDLPDPQAMFDINYFKRDPRPFYKFAREIYPGEFQPSPCHRFIKMLETKGKLLRNYTQNIDTLERVAGIQRVIECHGSFSTASCTKCRFKCNADALRADIFAQRIPVCPQCQPNKEQSVDASVAVTEEELRQLVENGIMKPDIVFFGEGLPDEYHTVMATDKDVCDLLIVIGSSLKVRPVAHIPSSIPATVPQILINREQLHHLKFDVELLGDSDVIINQICHRLSDNDDCWRQLCCDESVLTESKELMPPEHSNHHLHHHLLHHRHCSSESERQSQLDTDTQSIKSNSSADYILGSAGTCSDSGFESSTFSCGKRSTAAEAAAIERIKTDILVELNETTALSCDRLGLEGPQTTVESYRHLSIDSSKDSGIEQCDNEATPSYVRPSNLVQETKTVAPSLTPIPQQRGKRQTAAERLQPGTFYSHTNNYSYVFPGAQVFWDNDYSDDDDEEEERSHNRHSDLFGNVGHNYKDDDEDACDLNAVPLSPLLPPSLEAHIVTDIVNGSNEPLPNSSPGQKRTACIIEQQPTPAIETEIPPLKKRRPSEENKQQTQIERSEESPPPGQLAAV
